Experimental data reported in PubChem BioAssay AID504834 (National Center for Advancing Translational Sciences (NCATS), 2011).
The campaign covered roughly 320,000 compounds. About 22,000 (6.9%) were called active. The inconclusive results got no clear call from the source; some entries with a clear call stand among them for comparison. Calls follow the shape of the dose curve; as a rule, active = well fitted inhibition curve with a large enough effect; inconclusive = small, poorly fitted or top-dose-only effect, or another doubt; inactive = no such curve, though single readings can be large or run the other way. A potency beside an inconclusive call is a rough fit, not a confirmed value.

Assay: Primary qHTS for delayed death inhibitors of the malarial parasite plastid, 96 hour incubation
Details: P. falciparum luciferase reporter growth; series mostly up to 28.7 µM
Summary of the method: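 Cell-based qHTS: luciferase-tagged P. falciparum in erythrocytes (2% hematocrit, 0.05% parasitemia final) incubated with compounds for 96 hours, 37 C, 5% CO2; luciferase detection reagent then added and luminescence measured.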
Potency is read from the fitted curve at half-maximal effect.

Question: Which Potency does the source give for COc1ccc2nc(SCC(=O)NC3CCCCC3)[nH]c2c1 here?
Answer: The Potency was “inactive”.

Question: With CCN1CCc2c(sc(NC(=O)c3ccc(S(=O)(=O)N4CCCC4)cc3)c2C(=O)NC)C1 as the compound, how does the Potency read?
Answer: The Potency was active: 14.7 µM.

Question: With O=C(CNS(=O)(=O)c1ccccc1F)NNC(=O)c1ccc(Br)cc1 as the compound, how does the Potency read?
Answer: Its Potency is “inactive”.

Question: For CCN(CC)CCNC(=O)c1ccc(NC(=O)c2ccc(S(=O)(=O)N3CCCCCC3)cc2)cc1, which Potency is on record?
Answer: The Potency was inconclusive: 13.1 µM [inhibitor, partial curve, poor fit].

Question: With CCOc1ccc(/C=C/C(=O)c2cc(Br)ccc(=O)c2O)cc1 as the compound, how does the Potency read?
Answer: The Potency was active: 9.28 µM.

Question: With CCCCCCCC/C=C\CCCCCCCC(=O)O as the compound, how does the Potency read?
Answer: The Potency was “inactive”.

Question: With COc1ccc(S(=O)(=O)N2CCCCCC2)cc1C(=O)NCc1ccccc1Cl as the compound, how does the Potency read?
Answer: Its Potency is active: 8.28 µM.

Question: Which Potency does the source give for CCC(=O)Nc1ccccc1C(=O)N1CCOCC1 here?
Answer: Its Potency is inconclusive: 4.65 µM [inhibitor, partial curve, poor fit].

Question: Which Potency does the source give for CCOC(=O)C1CCN(C(=O)CC2(CC(=O)O)CCCC2)CC1 here?
Answer: The Potency was “inactive”.

Question: For COc1ccc(C)cc1NS(=O)(=O)c1ccc(-c2cnc(C3CC3)o2)cc1, which Potency is on record?
Answer: The Potency was inconclusive: 18.5 µM [inhibitor, single point].

Question: With O=C(Nc1ccccc1)c1cccc(S(=O)(=O)N2CCCCC2)c1 as the compound, how does the Potency read?
Answer: Its Potency is inconclusive: 0.147 µM [inhibitor, full curve, poor fit].

Question: For Cn1c(=O)c2c(nc(NCc3cccnc3)n2Cc2ccccc2Cl)n(C)c1=O, which Potency is on record?
Answer: The Potency was inconclusive: 2.33 µM [inhibitor, full curve, poor fit].

Question: For COC(=O)N/N=C/c1cc(OC)c(O)c([N+](=O)[O-])c1, which Potency is on record?
Answer: Its Potency is “inactive”.

Question: For Cc1ccc(NC(=O)COc2coc(CN3CCc4ccccc4C3)cc2=O)c(C)c1, which Potency is on record?
Answer: The Potency was inconclusive: 18.5 µM [inhibitor, partial curve, poor fit].

Question: Which Potency does the source give for COc1cc(/C=C(/NC(C)=O)C(=O)O)cc(Cl)c1OCc1ccc(Br)cc1 here?
Answer: Its Potency is inconclusive: 14.7 µM [inhibitor, single point].

Question: For O=C(N1CCOCC1)N1CCN(S(=O)(=O)c2ccccc2)C1, which Potency is on record?
Answer: Its Potency is inconclusive: 18.5 µM [inhibitor, single point].

Question: Which Potency does the source give for CNC(=S)N/N=C(\C)c1ccc(C)c(C)c1 here?
Answer: Its Potency is inconclusive: 18.5 µM [inhibitor, single point].

Question: With COc1cc(OC)cc(C(=O)NCC(=O)N2CCN(c3ccc(O)cc3)CC2)c1 as the compound, how does the Potency read?
Answer: Its Potency is inconclusive: 18.5 µM [inhibitor, single point].

Question: With CCOC(=O)Nc1ccc2nc3n(c(=O)c2c1)CCCCC3 as the compound, how does the Potency read?
Answer: Its Potency is “inactive”.

Question: With CC(OCC(O)CN(C)Cc1nc2ccccc2c(=O)[nH]1)c1ccc(Cl)cc1 (stereo not given) as the compound, how does the Potency read?
Answer: The Potency was inconclusive: 11.7 µM [inhibitor, single point].

Question: For COc1ccc(-c2cc(C3CCN(c4ccc(C(C)=O)cc4[N+](=O)[O-])CC3)[nH]n2)cc1, which Potency is on record?
Answer: The Potency was inconclusive: 14.7 µM [inhibitor, single point].

Question: With CC(=O)Nc1ccc(SC[C@H](CC(C)C)N2CCN(CCc3ccccc3)CCC2=O)cc1 as the compound, how does the Potency read?
Answer: The Potency was active: 7.38 µM.

Question: Which Potency does the source give for CC(C)CCN1CCN(CCCn2cccn2)CC1CCO (stereo not given) here?
Answer: Its Potency is “inactive”.

Question: With COC(=O)c1ccc(NC(=O)CSc2nnc(CNc3ccc(F)cc3)n2C)cc1 as the compound, how does the Potency read?
Answer: Its Potency is “inactive”.

Question: Which Potency does the source give for CC[n+]1c(C)sc2cc(C)ccc21 here?
Answer: Its Potency is inconclusive: 9.28 µM [inhibitor, partial curve, poor fit].

Question: With CSc1nnc(C)c(=O)n1COC(=O)c1ccccc1 as the compound, how does the Potency read?
Answer: The Potency was inconclusive: 16.5 µM [inhibitor, single point].

Question: For O=C(c1cc(-c2ccccc2Cl)nc2ccccc12)N1CCN(c2ccccc2O)CC1, which Potency is on record?
Answer: Its Potency is active: 4.15 µM.

Question: Which Potency does the source give for COc1ccccc1C(=O)Nc1cc(C)ccc1NC(=O)c1ccco1 here?
Answer: The Potency was inconclusive: 1.65 µM [inhibitor, partial curve, poor fit].

Question: For COc1ccc(OC)c(/C=N/NC(=O)C(O)c2ccccc2)c1 (stereo not given), which Potency is on record?
Answer: Its Potency is inconclusive: 13.1 µM [inhibitor, single point].

Question: For c1ccc(N/N=C2\CCCc3ccccc32)nc1, which Potency is on record?
Answer: The Potency was inconclusive: 9.28 µM [inhibitor, partial curve, poor fit].

Question: With CCSc1ncccc1C(=O)N[C@@H](CCSC)C(=O)OC as the compound, how does the Potency read?
Answer: Its Potency is “inactive”.

Question: Which Potency does the source give for CN1/C(=C\C(=O)COC(=O)CNC(=O)c2ccc3ccccc3c2)C(C)(C)c2ccccc21 here?
Answer: The Potency was inconclusive: 18.5 µM [inhibitor, single point].

Question: With CCOC(=O)C1CCN(C(=O)CCCn2nc(CC)n3c(cc4occc43)c2=O)CC1 as the compound, how does the Potency read?
Answer: Its Potency is inconclusive: 20.8 µM [inhibitor, single point].

Question: With Cc1cc(S(=O)(=O)N2CCCc3ccccc32)ccc1-n1cnnn1 as the compound, how does the Potency read?
Answer: The Potency was “inactive”.

Question: For Cc1ccc(/C=N/NC(=O)CSc2nnc(-c3ccccc3)n2-c2ccc(Cl)cc2)o1, which Potency is on record?
Answer: Its Potency is inconclusive: 8.28 µM [inhibitor, partial curve, poor fit].

Question: Which Potency does the source give for CCOC(=O)C(=O)Nc1ccc([N+](=O)[O-])cc1OC here?
Answer: The Potency was “inactive”.

Question: With Cc1nc([N+](=O)[O-])c(Sc2nc3ccccc3n2C)n1Cc1ccccc1 as the compound, how does the Potency read?
Answer: Its Potency is inconclusive: 10.4 µM [inhibitor, single point].

Question: For Cc1ccccc1C(=O)OCc1nnc(-c2ccc(Cl)cc2)o1, which Potency is on record?
Answer: The Potency was “inactive”.

Question: Which Potency does the source give for CC(=O)N1CCN(c2cc(N3CCc4ccccc4C3)c(F)cc2[N+](=O)[O-])CC1 here?
Answer: The Potency was inconclusive: 1.04 µM [inhibitor, partial curve].

Question: For COc1ccc(NC(=O)NC23CC4CC(CC(C4)C2)C3)cc1OC, which Potency is on record?
Answer: The Potency was inconclusive: 14.7 µM [inhibitor, single point].

Question: For COc1cc(/C(=C/c2ccccc2)c2ccccc2)c2c(c1)oc1ccccc12, which Potency is on record?
Answer: Its Potency is active: 13.1 µM.

Question: Which Potency does the source give for CNC(=O)c1ccc(NC(=O)Nc2ccccc2)cc1 here?
Answer: The Potency was inconclusive: 0.0029 µM [inhibitor, full curve, poor fit].

Question: For CCC(C)NC(=O)CSc1nc(-c2cccs2)cc(C(F)(F)F)n1 (stereo not given), which Potency is on record?
Answer: Its Potency is active: 5.22 µM.

Question: With Cc1nnc(Sc2cc(NCCO)c([N+](=O)[O-])c3nonc23)s1 as the compound, how does the Potency read?
Answer: Its Potency is “inactive”.

Question: With O=C1CC(=O)N(Cc2ccco2)C(=O)N1 as the compound, how does the Potency read?
Answer: Its Potency is “inactive”.

Question: Which Potency does the source give for O=C1c2ccc([N+](=O)[O-])cc2NC(c2ccco2)N1/N=C/c1ccco1 (stereo not given) here?
Answer: The Potency was inconclusive: 8.28 µM [inhibitor, partial curve, poor fit].

Question: For CCCCSc1nnc2n(CCc3ccccc3)c(=O)c3c4c(sc3n12)COC(C)(C)C4, which Potency is on record?
Answer: The Potency was active: 1.65 µM.

Question: With CCc1ccc(NC(=O)C2CC(=O)N(C(C)C)C2)cc1 (stereo not given) as the compound, how does the Potency read?
Answer: The Potency was inconclusive: 1.47 µM [inhibitor, full curve].

Question: Which Potency does the source give for N#C/C=C/N1CCN(Cc2ccc3c(c2)OCO3)CC1 here?
Answer: Its Potency is “inactive”.

Question: For O=C(c1ccc(CS(=O)(=O)c2ccc(Br)cc2)o1)N1CCN(c2ncccn2)CC1, which Potency is on record?
Answer: Its Potency is active: 1.85 µM.

Question: With O=c1cc(C(F)(F)F)[nH]c2ccc(OC(F)(F)F)cc12 as the compound, how does the Potency read?
Answer: The Potency was inconclusive: 18.5 µM [inhibitor, single point].

Question: With CCOCCCn1c(=S)[nH]c2cc(C(=O)NCCN(CC)CC)ccc2c1=O as the compound, how does the Potency read?
Answer: The Potency was inconclusive: 0.0657 µM [inhibitor, full curve, poor fit].

Question: Which Potency does the source give for O=C(CCS(=O)(=O)c1cccs1)Nc1ccc(C(=O)NCc2ccccc2)cc1 here?
Answer: The Potency was “inactive”.

Question: For C[C@@H]1C[C@@H]2OC(=O)[C@]3(C)[C@H]2[C@@H](OC3(C)O)[C@]2(C)C(=O)C=C[C@H]12 (stereo not given in full), which Potency is on record?
Answer: The Potency was inconclusive: 11.7 µM [inhibitor, partial curve, poor fit].

Question: With O=C(N/N=C/c1ccccn1)c1cc(-c2ccccc2Cl)n[nH]1 as the compound, how does the Potency read?
Answer: Its Potency is inconclusive: 11.7 µM [inhibitor, single point].

Question: With COc1ccc(/C=C/C(=O)NC2=NCCS2)cc1OC as the compound, how does the Potency read?
Answer: The Potency was “inactive”.

Question: With Cc1ccc(SCCCn2cnc3ccccc3c2=O)cc1 as the compound, how does the Potency read?
Answer: The Potency was inconclusive: 0.0033 µM [inhibitor, full curve, poor fit].

Question: With S=C(Nc1ccccc1)Nc1ccc(Cl)cc1Cl as the compound, how does the Potency read?
Answer: Its Potency is “inactive”.

Question: Which Potency does the source give for CCOC(=O)N1CCC(N2Cc3cccc(C(=O)N4CCN(c5cccc(Cl)c5)CC4)c3C2=O)CC1 here?
Answer: Its Potency is inconclusive: 3.29 µM [inhibitor, partial curve, poor fit].

Question: Which Potency does the source give for O=C(C1CCCCCC1)N1CC[C@@H](N2CCC(O)CC2)[C@H](O)C1 here?
Answer: The Potency was inconclusive: 10.4 µM [inhibitor, partial curve, poor fit].

Question: For O=C(NCc1ccc2c(c1)OCO2)Nc1ccc(Cl)cc1, which Potency is on record?
Answer: Its Potency is inconclusive: 20.8 µM [inhibitor, single point].

Question: With O=c1c(Sc2ccccc2)c(C(F)(F)F)[nH]n1-c1ccccc1 as the compound, how does the Potency read?
Answer: Its Potency is inconclusive: 0.0026 µM [inhibitor, full curve, poor fit].

Question: With COc1cccc(C(=O)Nc2ccc3nc(N4CCN(c5ncccn5)CC4)cc(C)c3c2)c1OC as the compound, how does the Potency read?
Answer: The Potency was inconclusive: 18.5 µM [inhibitor, single point].

Question: Which Potency does the source give for CN(CC(=O)Nc1ccccc1Br)C(=O)CCSc1ccc(F)cc1 here?
Answer: The Potency was “inactive”.

Question: For O=C(CCCn1c(=O)[nH]c2ccccc2c1=O)N1CCN(c2ccccn2)CC1, which Potency is on record?
Answer: Its Potency is inconclusive: 3.7 µM [inhibitor, partial curve, poor fit].

Question: With C=CCOC(=O)C1=C[C@@H](c2cn(C(C)=O)c3ccccc23)C[C@@H](OCCCCO)O1 as the compound, how does the Potency read?
Answer: The Potency was inconclusive: 18.5 µM [inhibitor, single point].

Question: With Cc1nc(N)nc2c1CCCC2 as the compound, how does the Potency read?
Answer: The Potency was inconclusive: 18.5 µM [inhibitor, single point].

Question: For CC1NC2(C(=O)N(Cc3ccccc3)c3ccccc32)C2C(=O)N(c3ccccc3)C(=O)C12 (stereo not given), which Potency is on record?
Answer: The Potency was active: 11.7 µM.

Question: With COc1ccc(CN(C)C(=O)C2CSC3(C)CCC(=O)N23)cc1OC (stereo not given) as the compound, how does the Potency read?
Answer: The Potency was inconclusive: 18.5 µM [inhibitor, single point].

Question: Which Potency does the source give for CCN(Cc1ccccc1)S(=O)(=O)c1c(C(=O)N2CCCC2)c(C)n(C)c1C here?
Answer: Its Potency is inconclusive: 20.8 µM [inhibitor, partial curve, poor fit].
